According to PubChem BioAssay AID2685 (National Center for Advancing Translational Sciences (NCATS), 2010):
The list shows a part of the results. The main result of the screen is listed elsewhere. These columns were measured beside it and carry no call. Most of these compounds were active or inconclusive in the main read-out, so they are no random draw. Words in brackets tell the shape of the fitted curve; partial curves, single points and poor fits give uncertain potencies.

Assay: qHTS Assay for Lipid Storage Modulators in Drosophila S3 Cells;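 as to cell number change: cells counted by Cell Tracker Red CMTPX staining in the red channel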
Details: BODIPY lipid droplet fluorescence, 18-24 h; for cell number change: measured here: cell count max response, cells fed with added oleic acid
Procedure, shortened: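 Drosophila S3 cells loaded with oleic acid (400 uM, as added) and compounds at several concentrations; lipid droplets imaged by 488-nm laser-scanning cytometry, 500–530 nm intensity and object ratio to cell channel. Percent activity normalized to 20 uM Triacsin C.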

[1] = measured here: lipid fluorescence (Fed channel) AC50, cells fed with added oleic acid
[2] = measured here: cell number channel AC50, cells fed with added oleic acid

Compound	cell number change	AC50 [1]	AC50 [2]
O=C(NC(Cc1ccccc1)C(=O)O)/C(=C/c1ccccc1)NC(=O)c1ccco1 (stereo not given)	4.35%	0.58 µM [falling, single point]	
c1csc(-c2cn3ccc4ccccc4c3n2)c1	-10.1%	2.91 µM [falling, partial curve]	
CCCNC(=O)NS(=O)(=O)c1cnccc1Sc1ccc(Cl)cc1	-26.8%	11.6 µM [falling, partial curve]	
Cc1cc(NC(=O)CCSc2ccccc2)ccc1Br	-32.9%		29.1 µM [falling, single point]
O=C1CCN=C(Nc2ccc(F)cc2)N1Cc1ccccc1	-2.06%	0.00411 µM [rising, full curve, poor fit]	5.17 µM [rising, single point]
CCOC(=O)c1cccnc1SCC(=O)N(CC)c1cccc(C)c1	9.68%	18.4 µM [rising, partial curve]	
O=C(/C=C/c1ccc(S(=O)(=O)N2CCOCC2)cc1)NCc1ccc(Cl)cc1	-11.3%	0.731 µM [falling, full curve, poor fit]	
COc1ccc(C(=O)Nn2c(SCC(=O)NCC3CCCO3)nc3ccccc3c2=O)cc1 (stereo not given)	64.9%		8.2 µM [rising, partial curve]
O=C(NCc1ccccc1)/C(=C/c1ccccc1)NC(=O)c1ccco1	-7.83%		
Cc1cccc(CCNC(=O)c2oc3c(C)c(C)ccc3c2C)n1	2.48%		
Cc1cc(C)nc(CC(N)=O)n1	-37.6%		0.082 µM [falling, full curve, poor fit]
O=C(c1cnccn1)N1CCCC(N2CCN(c3cccc(Cl)c3)CC2)C1 (stereo not given)	35.5%		10.3 µM [rising, partial curve, poor fit]
CCc1cc[n+](CC(=O)Nc2ccc(Cl)cc2Cl)cc1	-74%	7.31 µM [falling, partial curve]	7.31 µM [falling, partial curve]
COc1ccc(NC(=S)N(CCCN2CCOCC2)Cc2cn(C)c3ccccc23)cc1OC	16.1%	1.46 µM [rising, partial curve]	
COc1cccc(-c2nn(C)c3sc(C(=O)N4CCOCC4)cc23)c1	-18.7%	3.26 µM [falling, partial curve]	
O=C(O)c1ccc(-c2ccc(OS(=O)(=O)c3ccccc3F)cc2)cc1	0.833%		
Cc1nc(SCC(=O)N2CCC(Cc3ccccc3)CC2)[nH]c(=O)c1C	26.5%	14.6 µM [rising, partial curve]	
COc1ccc(-c2ccc(C3C(C#N)=C(N)Oc4n[nH]c(C)c43)o2)cc1 (stereo not given)	-23.3%	13 µM [falling, partial curve, poor fit]	
O=C(CSc1cccc2cccnc12)N/N=C/c1ccc(O)cc1	3.87%	29.1 µM [falling, single point]	
O=C(NC1c2ccccc2-c2ccccc21)N1CCCCC1	36.2%		29.1 µM [rising, single point]

Compound	cell number change	AC50 [1]	AC50 [2]
C[n+]1cnn2c1SCC1(COC1)C2	-25.1%	4.11 µM [falling, full curve, poor fit]	0.291 µM [falling, full curve, poor fit]
S=c1nc(NCc2cccc(Cl)c2)c2ccccc2[nH]1	7.04%	29.1 µM [rising, single point]	
COc1ccc(C(=O)NCc2nnc(SCC(=O)Nc3ccccc3OC)o2)cc1	39.9%		0.0291 µM [rising, full curve]
COc1cccc(NC(=O)CCC(=O)NCc2ccco2)c1	-73.3%	23.1 µM [falling, partial curve]	9.2 µM [falling, partial curve]
Cc1ccc(-c2nn(-c3ccccn3)c(=O)c3ccccc23)cc1C	3.95%	0.82 µM [rising, single point]	
COc1cc(OC)cc(C(=O)N[C@H](C(=O)OCC(=O)NC(C)c2ccccc2)C(C)C)c1 (stereo not given in full)	-15.4%	29.1 µM [falling, single point]	
COCCNC(=S)NNC(=O)c1cccs1	16.9%	6.51 µM [falling, single point]	
CC(OC(=O)CCN=C1NS(=O)(=O)c2ccccc21)C(=O)c1ccccc1 (stereo not given)	-9.24%		
Cc1cccc(OC(C)C(=O)Nc2ccc(N3CCCCC3)cc2)c1 (stereo not given)	4.82%		
Cn1cnnc1SCC(=O)N1N=C2/C(=C/c3ccco3)CCCC2C1c1ccco1 (stereo not given)	-28.8%		
Cc1ccc(N2C(=O)CS/C2=C(\C(Cl)=C(Cl)Cl)[N+](=O)[O-])cc1	140%	20.6 µM [falling, partial curve]	29.1 µM [rising, single point]
O=C(COc1ccc2c3c(c(=O)oc2c1)CCCC3)NCc1ccccn1	-7.37%		6.51 µM [falling, single point]
OCC#CCSc1nnc(-c2ccccc2Br)o1	67%		29.1 µM [rising, single point]
Cc1cc(C(=O)N2CCCC(N3CCN(c4ccccc4C)CC3)C2)nc(C)n1 (stereo not given)		29.1 µM [rising, single point]	
O=C(CCn1c(=S)[nH]c2cc3c(cc2c1=O)OCO3)NCc1cccc(Cl)c1	123%	6.51 µM [falling, single point]	29.1 µM [rising, single point]
COc1cc(/C=N/N=C(/N)c2nonc2N)cc(Br)c1OCc1cccc(C)c1	-67.2%		
CC(C(=O)OCC(=O)c1ccc(Br)cc1)N1C(=O)C2C3C=CC(C3)C2C1=O (stereo not given)	-26.2%	29.1 µM [falling, single point]	
Fc1ccc(-c2nnc3n2CCCCC3)cc1	44.1%	29.1 µM [rising, single point]	23.1 µM [rising, single point]
COc1cc(NC(=S)NC(=O)c2ccc(F)cc2)ccc1NC(=O)c1ccco1	-9.01%	0.164 µM [rising, full curve, poor fit]	
CC(CN(C(N)=O)c1ccccc1O)C(=O)O (stereo not given)	15.6%	29.1 µM [falling, single point]	

An excerpt of these results, as a markdown table.

| Compound | cell number change | AC50 [1] | AC50 [2] |
| --- | --- | --- | --- |
| COc1ccc(C(=O)NCc2nnc(SCC(=O)Nc3ccccc3OC)o2)cc1 | 39.9% |  | 0.0291 µM [rising, full curve] |
| COc1cccc(NC(=O)CCC(=O)NCc2ccco2)c1 | -73.3% | 23.1 µM [falling, partial curve] | 9.2 µM [falling, partial curve] |
| Cc1ccc(-c2nn(-c3ccccn3)c(=O)c3ccccc23)cc1C | 3.95% | 0.82 µM [rising, single point] |  |
| COc1cc(OC)cc(C(=O)N[C@H](C(=O)OCC(=O)NC(C)c2ccccc2)C(C)C)c1 (stereo not given in full) | -15.4% | 29.1 µM [falling, single point] |  |
| COCCNC(=S)NNC(=O)c1cccs1 | 16.9% | 6.51 µM [falling, single point] |  |
| CC(OC(=O)CCN=C1NS(=O)(=O)c2ccccc21)C(=O)c1ccccc1 (stereo not given) | -9.24% |  |  |
| Cc1cccc(OC(C)C(=O)Nc2ccc(N3CCCCC3)cc2)c1 (stereo not given) | 4.82% |  |  |
| Cn1cnnc1SCC(=O)N1N=C2/C(=C/c3ccco3)CCCC2C1c1ccco1 (stereo not given) | -28.8% |  |  |
| Cc1ccc(N2C(=O)CS/C2=C(\C(Cl)=C(Cl)Cl)[N+](=O)[O-])cc1 | 140% | 20.6 µM [falling, partial curve] | 29.1 µM [rising, single point] |
| O=C(COc1ccc2c3c(c(=O)oc2c1)CCCC3)NCc1ccccn1 | -7.37% |  | 6.51 µM [falling, single point] |
| OCC#CCSc1nnc(-c2ccccc2Br)o1 | 67% |  | 29.1 µM [rising, single point] |
| Cc1cc(C(=O)N2CCCC(N3CCN(c4ccccc4C)CC3)C2)nc(C)n1 (stereo not given) |  | 29.1 µM [rising, single point] |  |
| O=C(CCn1c(=S)[nH]c2cc3c(cc2c1=O)OCO3)NCc1cccc(Cl)c1 | 123% | 6.51 µM [falling, single point] | 29.1 µM [rising, single point] |
| COc1cc(/C=N/N=C(/N)c2nonc2N)cc(Br)c1OCc1cccc(C)c1 | -67.2% |  |  |
| CC(C(=O)OCC(=O)c1ccc(Br)cc1)N1C(=O)C2C3C=CC(C3)C2C1=O (stereo not given) | -26.2% | 29.1 µM [falling, single point] |  |

More records follow:

Compound	cell number change	AC50 [1]	AC50 [2]
CC(C)NCC(O)c1ccc(O)c(O)c1 (stereo not given)	15.9%	29.1 µM [rising, single point]	
COc1ccc(N2CCC(CNS(=O)(=O)c3cccc(C(F)(F)F)c3)C2)cc1 (stereo not given)			6.51 µM [rising, single point]
COc1ccc(-c2csc(N)n2)cc1F	50.2%		29.1 µM [rising, single point]
CC(C)C(C)NC(=O)COC(=O)C1CCN(S(=O)(=O)c2ccc3c(c2)OCCO3)CC1 (stereo not given)	9%		
CCOC(=O)N1CCN(C(=O)CCS(=O)(=O)c2ccc3c(c2)CCN3C(=O)CC)CC1	0.917%	29.1 µM [rising, single point]	
CS(=O)(=O)N(CC(=O)NCCSCc1c(F)cccc1Cl)c1cccc([N+](=O)[O-])c1	-46.7%	32.6 µM [falling, single point]	32.6 µM [falling, single point]
O=C(N/N=C/c1ccc(OC(F)F)cc1)c1cccc(S(=O)(=O)N2CCOCC2)c1	-6.54%	0.00517 µM [falling, full curve, poor fit]	
CCc1nc(Sc2nnnn2-c2ccccc2)c2c3c(sc2n1)CCCC3	-33.3%		0.00461 µM [falling, full curve, poor fit]
Cc1c(Br)c(C(=O)NCc2cc3cc(Cl)ccc3[nH]2)nn1C	40.7%	1.46 µM [rising, partial curve]	0.366 µM [rising, full curve]
CC(C)n1ncc2c(C(=O)NCc3ccccc3CN(C)C)cc(C3CC3)nc21	-17.3%	0.58 µM [rising, single point]	
CCc1ccccc1NC(=S)N(Cc1cccnc1)Cc1ccco1	11.2%	0.326 µM [rising, partial curve, poor fit]	
COc1ccc(-c2nnc(SCC(N)=O)n2N)cc1	-4.42%	0.651 µM [falling, full curve]	
COc1ccc(N2CCN(Cc3cc(OC)c(O)c([N+](=O)[O-])c3)CC2)cc1	-25.6%	1.03 µM [falling, full curve, poor fit]	1.64 µM [falling, full curve, poor fit]
Cc1[nH]c2ccccc2c1/C=C/c1nc2ccccc2c(=O)[nH]1	-37.1%	29.1 µM [falling, single point]	29.1 µM [falling, single point]
Oc1ccccc1-c1nc2cnccn2c1Nc1ccc2c(c1)OCCO2		2.59 µM [rising, partial curve]	1.84 µM [rising, partial curve]
O=C1C2CCCCC2C(=O)N1c1ccc(NC2CCN(Cc3ccccc3)CC2)c([N+](=O)[O-])c1 (stereo not given)		18.4 µM [rising, partial curve]	
COC(=O)[C@]1(CC(C)C)N[C@H](c2ccc(-c3ccc(F)cc3)cc2)[C@@H]2C(=O)N(C)C(=O)[C@@H]21	-44.6%		18.4 µM [falling, single point]
Cc1cc2oc(=O)cc(CN3CCCCC3)c2cc1C	24.8%		
CC(C)=C(C#N)c1nc2ccccc2s1	108%	1.03 µM [rising, partial curve]	1.84 µM [rising, full curve]
CC(C)c1ccc2[nH]c(O)c(N=NC(=O)c3cccc(S(=O)(=O)N4CCCCC4)c3)c2c1	12.7%	6.51 µM [rising, single point]	
